This is one part of the list. Part of the spread comes from offsets between plates or batches.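 Hits were defined as a z-score below −3.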 Starred links: 1 amine or outer side, 2 acyl side, 3 side chain; linkers in the order of their positions; H or OH if unused. Positions of bridges follow the written chain, without caps; N, C: chain ends. Non-standard residues stand in square brackets, D forms with d. Residues, ends and D or L forms follow the SMILES beside them. Chains are numbered I, II in the order given. Actinocin(9to1) = Cc1c2oc3c(C)ccc(C(=O)[*:1])c3nc-2c(C(=O)[*:2])c(N)c1=O; NMeV = CN[C@H](C(=O)O)C(C)C; Sar = CNCC(=O)O

The assay concerns the target T1, YTHDF1 YTH domain (aa 365-554) (UniProt Q9BYJ9).
T1 sequence (whole entry): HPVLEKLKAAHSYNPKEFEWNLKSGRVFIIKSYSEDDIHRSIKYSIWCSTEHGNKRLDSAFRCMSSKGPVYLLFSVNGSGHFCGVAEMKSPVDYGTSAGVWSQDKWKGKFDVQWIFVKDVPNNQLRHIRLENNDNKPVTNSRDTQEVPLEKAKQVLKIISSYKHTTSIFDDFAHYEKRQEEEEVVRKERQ
Put plainly: tryptophan fluorescence intensity z-score (mean); higher = higher fluorescence, less quenching (negative = binding / quenching). The conditions noted are these: 10 µM.
In the case of `N=C(N)N1CCc2ccccc2C1` (plate: M 13-14), the “tryptophan fluorescence intensity z-score” value was inactive: 0.424.

Take `COCCCOc1cc(C[C@@H](C[C@H](N)[C@@H](O)C[C@H](C(=O)NCC(C)(C)C(N)=O)C(C)C)C(C)C)ccc1OC` (plate: M 11-12): the “tryptophan fluorescence intensity z-score” value is inactive: 0.399.

In the case of `CCCCOC(=O)c1ccc(O)cc1` (plate: M 13-14), the “tryptophan fluorescence intensity z-score” value was inactive: 0.514.

Regarding `C#C[C@]1(OC(C)=O)CC[C@H]2[C@@H]3CCC4=CC(=O)CC[C@@H]4[C@H]3CC[C@@]21C` (plate: M 3-4), the “tryptophan fluorescence intensity z-score” value is inactive: -0.483.

As to `Cc1c2oc3c(C)ccc(C(=O)N[C@@H]4C(=O)N[C@H](C(C)C)C(=O)N5CCC[C@H]5C(=O)N(C)CC(=O)N(C)[C@@H](C(C)C)C(=O)O[C@@H]4C)c3nc-2c(C(=O)N[C@@H]2C(=O)N[C@H](C(C)C)C(=O)N3CCC[C@H]3C(=O)N(C)CC(=O)N(C)[C@@H](C(C)C)C(=O)O[C@@H]2C)c(N)c1=O` (plate: M 1-2) (I: T[dV]P[Sar][NMeV] / II: T[dV]P[Sar][NMeV]; ester I:1-I:C, II:1-II:C; linker I:N-II:N via Actinocin(9to1)), the “tryptophan fluorescence intensity z-score” value is inactive: -0.44.

For the compound `COc1ccc2c(c1)c(CC(=O)OCC(=O)O)c(C)n2C(=O)c1ccc(Cl)cc1` (plate: M 23-24), the “tryptophan fluorescence intensity z-score” value is inactive: 0.0618.

Take `O=C1C(O)=C(O)C(=O)C(O)=C1O` (plate: M 9-10): the “tryptophan fluorescence intensity z-score” value is inactive: -0.279.

For the compound `COC(=O)C[C@H]1C(C)(C)C(=O)[C@@H]2CC3C4=CC(=O)O[C@@H](c5ccoc5)[C@]4(C)CC[C@@H]3[C@@]1(C)C2=O` (stereo partly specified) (plate: M 13-14), the “tryptophan fluorescence intensity z-score” value is inactive: 0.583.

As to `CC(C)=CC1C(C(=O)O)C1(C)C` (stereo unspecified) (plate: M 19-20), the “tryptophan fluorescence intensity z-score” value is inactive: 0.704.

With `CC(C)Cn1c(=O)n(C)c(=O)c2nc[nH]c21` (plate: M 23-24), the “tryptophan fluorescence intensity z-score” value is inactive: 0.446.

`COc1ccc2cc3[n+](cc2c1OC)CCc1cc2c(cc1-3)OCO2` (plate: M 17-18): the “tryptophan fluorescence intensity z-score” value was inactive: -0.545.

`COc1ccc2c(c1)OC[C@@H](Cc1ccc(OC)c(OC)c1)[C@@H]2O` (plate: M 19-20): the “tryptophan fluorescence intensity z-score” value is inactive: 0.806.

Regarding `Cc1cc(O)cc(O)c1C(=O)O` (plate: M 15-16), the “tryptophan fluorescence intensity z-score” value is inactive: 0.472.

As for `CC(C)(C)NCC(O)COc1cccc2c1CC(O)C(O)C2` (stereo unspecified) (plate: M 9-10), the “tryptophan fluorescence intensity z-score” value was inactive: -0.271.

In the case of `CN(C)CC(=O)OC[C@@H](O)[C@@H](O)[C@H](O)[C@@H](O)C(=O)O` (plate: M 21-22), the “tryptophan fluorescence intensity z-score” value was inactive: 0.27.

Regarding `CC[C@H](C)C(=O)O[C@H]1C[C@H](O)C=C2C=C[C@H](C)[C@H](CC[C@@H](O)C[C@@H](O)CC(=O)O)[C@H]21` (plate: M 11-12), the “tryptophan fluorescence intensity z-score” value is inactive: 0.232.

As to `CC1=C(C(=O)O)N2C(=O)[C@@H](NC(=O)[C@H](N)c3ccccc3)[C@H]2SC1` (plate: M 7-8), the “tryptophan fluorescence intensity z-score” value was inactive: -0.243.

In the case of `CCC(C)C(=O)OC1[C@@H]2CC3=C4CC(=O)O[C@@H](c5ccoc5)[C@]4(C)CCC3[C@@](C)(C2=O)[C@@H](CC(=O)OC)C1(C)C` (stereo partly specified) (plate: M 13-14), the “tryptophan fluorescence intensity z-score” value was inactive: 0.448.

As for `CC1CCC2(OC1)OC1CC3C4CCC5C[C@@H](O)CCC5(C)C4=CCC3(C)C1[C@@H]2C` (stereo partly drawn) [3beta-HYDROXYISOALLOSPIROST-9(11)-ENE] (plate: M 13-14), the “tryptophan fluorescence intensity z-score” value is inactive: 1.17.

For the compound `O=C(O)/C=C(\CC(=O)O)C(=O)O` (plate: M 17-18), the “tryptophan fluorescence intensity z-score” value is inactive: 0.292.

Regarding `Nc1nc(=O)[nH]cc1F` (plate: M 13-14), the “tryptophan fluorescence intensity z-score” value was inactive: 0.008.

As to `Nc1nnc(-c2cccc(Cl)c2Cl)c(N)n1` (plate: M 11-12), the “tryptophan fluorescence intensity z-score” value was inactive: 0.0842.

In the case of `NC[C@H]1O[C@H](O[C@H]2[C@H](O)[C@@H](O[C@H]3O[C@H](CO)[C@@H](O)[C@H](N)[C@H]3O)[C@H](N)C[C@@H]2N)[C@H](N)[C@@H](O)[C@@H]1O` (plate: M 5-6), the “tryptophan fluorescence intensity z-score” value is inactive: 0.0191.

As to `CC(=O)O[C@]1(C(C)=O)CC[C@H]2[C@@H]3C=C(C)C4=CC(=O)CC[C@]4(C)[C@H]3CC[C@@]21C` (plate: M 3-4), the “tryptophan fluorescence intensity z-score” value was inactive: -0.0137.

As for `Cc1c(C)c2c(c(C)c1O)CCC(C)(CCCC(C)CCCC(C)CCCC(C)C)O2` (stereo not drawn) [alpha-TOCHOPHEROL] (plate: M 1-2), the “tryptophan fluorescence intensity z-score” value is inactive: 0.443.

Turning to `CC(=O)/C=C\[C@@H]1[C@@]2(C)CCCC(C)(C)C2CC[C@@]1(C)O` (stereo partly specified) (plate: M 17-18), the “tryptophan fluorescence intensity z-score” value is inactive: 0.535.

Turning to `C=C(C)[C@@H]1CC[C@]2(C)CC[C@]3(C)[C@H](CC[C@@H]4[C@@]5(C)CC[C@H](O)C(C)(C)[C@@H]5CC[C@]43C)[C@@H]12` (plate: M 21-22), the “tryptophan fluorescence intensity z-score” value was inactive: 0.195.

On to `CCCCCCCCNC(C)C(O)c1ccc(SC(C)C)cc1` (stereo unspecified) (plate: M 7-8), for which the “tryptophan fluorescence intensity z-score” value was inactive: -0.291.

On to `C[C@H]1O[C@@H](O[C@H]2[C@@H](O)C[C@H](O[C@H]3[C@@H](O)C[C@H](O[C@H]4CC[C@@]5(C)[C@H](CC[C@@H]6[C@@H]5CC[C@]5(C)[C@@H](C7=CC(=O)OC7)CC[C@]65O)C4)O[C@@H]3C)O[C@@H]2C)C[C@H](O)[C@@H]1O` (plate: M 1-2), for which the “tryptophan fluorescence intensity z-score” value is inactive: 0.0229.

With `COc1cc2c(cc1OC)[C@@H]1C(=O)c3ccc4c(c3O[C@@H]1CO2)C=CC(C)(C)O4` (plate: M 21-22), the “tryptophan fluorescence intensity z-score” value is inactive: -0.96.

`S=c1[nH]cnc2nc[nH]c12` (plate: M 3-4): the “tryptophan fluorescence intensity z-score” value is inactive: -0.156.

Consider `NCCCCN` (plate: M 19-20), for which the “tryptophan fluorescence intensity z-score” value is inactive: 0.622.

On to `CC1=CC2C(CC1=O)C(C)=CCC2C(C)C` (stereo unspecified) (plate: M 17-18), for which the “tryptophan fluorescence intensity z-score” value was inactive: 0.758.

In the case of `CC(C)[C@@H]1CC[C@@H](C)CC1=O` (plate: M 17-18), the “tryptophan fluorescence intensity z-score” value was inactive: 0.0327.

With `CC(C)NC(=N)NC(=N)Nc1ccc(Cl)cc1` (plate: M 9-10), the “tryptophan fluorescence intensity z-score” value is inactive: 0.319.

As to `C[C@]12CCC3c4ccc(OS(=O)(=O)O)cc4CCC3C1CC[C@H]2O` (stereo partly specified) (plate: M 21-22), the “tryptophan fluorescence intensity z-score” value is inactive: 0.19.

Turning to `O=C1OC(=O)[C@H]2[C@@H]1[C@@H]1CC[C@H]2O1` (plate: M 23-24), the “tryptophan fluorescence intensity z-score” value was inactive: 0.498.

Take `Cc1nnc(SCC2=C(C(=O)O)N3C(=O)[C@@H](NC(=O)Cn4cnnn4)[C@H]3SC2)s1` (plate: M 1-2): the “tryptophan fluorescence intensity z-score” value was inactive: 0.702.

On to `O=c1[nH]c(=O)n([C@H]2C[C@H](O)[C@@H](CO)O2)cc1C(F)(F)F` (plate: M 9-10), for which the “tryptophan fluorescence intensity z-score” value was inactive: -0.258.

Turning to `COc1ccc2c3c1O[C@H]1C[C@@H](O)C=C[C@@]31CCN(C)C2` (plate: M 7-8), the “tryptophan fluorescence intensity z-score” value is inactive: -0.0141.

For `CCCC(=O)O[C@]1(C(=O)CO)CC[C@H]2[C@@H]3CCC4=CC(=O)CC[C@]4(C)[C@H]3[C@@H](O)C[C@@]21C` (plate: M 9-10), the “tryptophan fluorescence intensity z-score” value is inactive: 0.314.

Turning to `CC1(C)S[C@@H]2[C@H](NC(=O)COc3ccccc3)C(=O)N2[C@H]1C(=O)O` (plate: M 3-4), the “tryptophan fluorescence intensity z-score” value was inactive: -0.281.

For `O=C(C=Cc1ccc(O)cc1)c1ccccc1O` (plate: M 23-24), the “tryptophan fluorescence intensity z-score” value is inactive: -0.635.

As to `NC(=O)N1c2ccccc2CC(=O)c2ccccc21` (plate: M 9-10), the “tryptophan fluorescence intensity z-score” value is inactive: -0.715.

As for `CC(=O)OCC(=O)[C@@]1(O)[C@H](OC(C)=O)C[C@H]2[C@@H]3CCC4=CC(=O)C=C[C@]4(C)[C@@]3(F)[C@@H](O)C[C@@]21C` (plate: M 5-6), the “tryptophan fluorescence intensity z-score” value was inactive: 0.0289.

As for `COc1cc2oc3cc(OC)c(OC)c(CC=C(C)C)c3c(=O)c2c(O)c1CC=C(C)C` (plate: M 21-22), the “tryptophan fluorescence intensity z-score” value was inactive: 0.0898.

For the compound `COc1cc(NS(=O)(=O)c2ccc(N)cc2)nc(OC)n1` (plate: M 7-8), the “tryptophan fluorescence intensity z-score” value is inactive: 0.105.

Regarding `CC[N+](CC)(CC(=O)Nc1c(C)cccc1C)Cc1ccccc1` (plate: M 11-12), the “tryptophan fluorescence intensity z-score” value was inactive: 0.175.

In the case of `CC1(C)O[C@@H]2[C@@H](CO[C@@]3(COS(N)(=O)=O)OC(C)(C)O[C@@H]23)O1` (plate: M 11-12), the “tryptophan fluorescence intensity z-score” value is inactive: 1.18.

Take `COc1cc2ccc(=O)oc2cc1O` (plate: M 19-20): the “tryptophan fluorescence intensity z-score” value is inactive: 0.407.

`O=C1N=C(O)NC1(c1ccccc1)c1ccccc1` (plate: M 5-6): the “tryptophan fluorescence intensity z-score” value was inactive: -0.0174.

For the compound `CC(=O)O[C@H]1C[C@@H](O)C(C)(C)[C@@H]2C[C@@H](OC(C)=O)[C@]3(C)[C@H](CC[C@@]4(C)[C@@H](c5ccoc5)OC(=O)[C@H]5O[C@@]534)[C@@]12C` (plate: M 13-14), the “tryptophan fluorescence intensity z-score” value was inactive: 0.832.

Turning to `C=C(C)[C@H]1COc2cc3oc(=O)ccc3cc2O1` (plate: M 13-14), the “tryptophan fluorescence intensity z-score” value was inactive: 0.364.

Consider `CC(=O)O[C@@H]1CC[C@@]2(C)C(C[C@@H](OC(C)=O)[C@@]3(C)C4=CC(=O)O[C@@H](c5ccoc5)[C@]4(C)CCC23)C1(C)C` (stereo partly drawn) [3alpha-ACETOXYDIHYDRODEOXYGEDUNIN] (plate: M 13-14), for which the “tryptophan fluorescence intensity z-score” value was inactive: -0.122.

On to `O=C(O)CCCC[C@@H]1CCSS1` (plate: M 23-24), for which the “tryptophan fluorescence intensity z-score” value was inactive: 0.292.

Take `CC(C[N+](C)(C)C)OC(N)=O` (stereo unspecified) (plate: M 1-2): the “tryptophan fluorescence intensity z-score” value was inactive: 0.516.

With `COc1ccc([C@@H]2Sc3ccccc3N(CCN(C)C)C(=O)[C@@H]2OC(C)=O)cc1` (plate: M 13-14), the “tryptophan fluorescence intensity z-score” value was inactive: 0.548.

Regarding `CCCCCCCCCCOc1cc2c(O)c(C(=O)OCC)cnc2cc1OCC` (plate: M 11-12), the “tryptophan fluorescence intensity z-score” value was inactive: -0.907.

Regarding `CC(C)c1cccc(=O)c(O)c1` (plate: M 19-20), the “tryptophan fluorescence intensity z-score” value was inactive: 0.215.

For `O=c1cc(-c2ccc(O)cc2)oc2cc(O[C@@H]3O[C@H](CO)[C@@H](O)[C@H](O)[C@H]3O)cc(O)c12` (plate: M 17-18), the “tryptophan fluorescence intensity z-score” value is inactive: 0.284.

`Cc1c(NC(C)C)c(=O)n(-c2ccccc2)n1C` (plate: M 23-24): the “tryptophan fluorescence intensity z-score” value is inactive: 0.325.
